# Data taken from patent publication US9068970B2, “Efficient and effective supplement screening for the development of chemically defined media in cell culture” (Abbvie Inc., priority 2010, dated 2015).
# At least one compound was matched to its structure with a doubt left.
# What was measured:
# [1] = tested on: recombinant IgG producing Chinese Hamster Ovary cell line (CHO cell line #1); test: 24-well plate media supplement screening: peak viable cell density (CellTiter 96 AQueous); format: cell-based; settings: HTS experiments; CDM #1, relative to unsupplemented control
# Description: (§1) 24-well plates were utilized at a working volume of 1.5 mL per well to serve as the platform for media supplement screening. An in-house, base chemically defined media (CDM #1) was used as the basal media for the purposes of the experiments. A recombinant IgG producing Chinese Hamster Ovary cell line (CHO cell line #1) was used for the media supplement screening phase of the experiments.
# (§2) All 24-well plate screening experiments were designed using JMP7 commercially available statistics software (Cary, N.C.) using custom experimental options. […] The comprehensive list of media supplements evaluated for cell culture process improvement is shown below in Table 2:
# (§3) Two cell culture performance indicators were measured in the high-throughput screening experiments: peak viable cell density and harvest titer. Time point samples were withdrawn from each of the respective plate wells on Days 6, 7, and 8 post inoculation and measured for their respective viable cell densities spectrophotometrically via the CellTiter 96 AQueous Solution Cell Proliferation Assay Kits™ (Promega, Madison, Wis.). […] All experimental wells supplemented with a particular combination of media compounds were compared to an unsupplemented control, with the results expressed as relative values relative to the control. […]
# [2] = tested on: recombinant IgG producing Chinese Hamster Ovary cell line (CHO cell line #1); test: 24-well plate media supplement screening: harvest titer (HPLC, Poros A affinity column); format: cell-based; settings: HTS experiments; CDM #1, relative to unsupplemented control
# Description: as §1, §2, §3
# The aforementioned supplements were evaluated for improvements in cell culture technique performance.
structure (smiles),measurement,setting,value
Nc1nc(=O)c2nc(CNc3ccc(C(=O)N[C@@H](CCC(=O)O)C(=O)O)cc3)cnc2[nH]1 [Folate],Effect on Peak VCD,[1],Decrease
same,Effect on Harvest Titer,[2],Decrease
